Source: patent publication US20240025959A1
No constants are given. Whether binding was seen depends on the method and setting. Binding seen in cells or lysates may run through a third protein. Some results given as binding are weak or reduced against the parent protein; the word gives no strength.

Protein sequences, listed by entry. Tags and fused reporters are not part of them.
UniProt Q96P20: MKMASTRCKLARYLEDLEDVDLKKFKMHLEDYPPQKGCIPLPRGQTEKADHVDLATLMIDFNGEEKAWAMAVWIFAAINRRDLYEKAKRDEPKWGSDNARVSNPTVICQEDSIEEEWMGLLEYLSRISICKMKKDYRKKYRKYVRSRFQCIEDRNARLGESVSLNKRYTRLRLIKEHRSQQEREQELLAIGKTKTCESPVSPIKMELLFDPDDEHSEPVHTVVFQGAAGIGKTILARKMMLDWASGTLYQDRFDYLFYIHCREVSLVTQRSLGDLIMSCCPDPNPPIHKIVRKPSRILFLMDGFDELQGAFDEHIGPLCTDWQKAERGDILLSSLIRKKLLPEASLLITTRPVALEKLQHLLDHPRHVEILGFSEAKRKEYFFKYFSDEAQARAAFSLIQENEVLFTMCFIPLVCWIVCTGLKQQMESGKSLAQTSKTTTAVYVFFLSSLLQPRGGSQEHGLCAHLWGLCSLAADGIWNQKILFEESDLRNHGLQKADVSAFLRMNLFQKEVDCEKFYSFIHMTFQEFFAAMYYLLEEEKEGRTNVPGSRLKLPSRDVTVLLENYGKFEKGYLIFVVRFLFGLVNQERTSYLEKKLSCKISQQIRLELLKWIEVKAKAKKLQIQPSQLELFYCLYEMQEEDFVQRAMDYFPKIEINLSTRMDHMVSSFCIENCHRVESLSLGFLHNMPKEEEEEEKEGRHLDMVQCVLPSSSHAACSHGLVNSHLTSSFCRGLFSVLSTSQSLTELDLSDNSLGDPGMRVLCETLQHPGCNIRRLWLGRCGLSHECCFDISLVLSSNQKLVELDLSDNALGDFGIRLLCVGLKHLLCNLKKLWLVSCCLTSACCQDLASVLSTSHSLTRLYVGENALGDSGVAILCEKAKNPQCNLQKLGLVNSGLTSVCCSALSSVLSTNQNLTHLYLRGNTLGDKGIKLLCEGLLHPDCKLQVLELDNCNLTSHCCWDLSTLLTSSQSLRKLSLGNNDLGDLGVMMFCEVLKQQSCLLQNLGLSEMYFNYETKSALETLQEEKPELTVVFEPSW

Tests used:
[1] = target: T1, ATG9A (human) (human) (UniProt Q7Z3C6); test: discussion of Example 1; co-IP of Flag-NLRP3 with HA-ATG9A in BECN2 KO HEK293T cells (FIG. 30E)
T1 sequence (looked up): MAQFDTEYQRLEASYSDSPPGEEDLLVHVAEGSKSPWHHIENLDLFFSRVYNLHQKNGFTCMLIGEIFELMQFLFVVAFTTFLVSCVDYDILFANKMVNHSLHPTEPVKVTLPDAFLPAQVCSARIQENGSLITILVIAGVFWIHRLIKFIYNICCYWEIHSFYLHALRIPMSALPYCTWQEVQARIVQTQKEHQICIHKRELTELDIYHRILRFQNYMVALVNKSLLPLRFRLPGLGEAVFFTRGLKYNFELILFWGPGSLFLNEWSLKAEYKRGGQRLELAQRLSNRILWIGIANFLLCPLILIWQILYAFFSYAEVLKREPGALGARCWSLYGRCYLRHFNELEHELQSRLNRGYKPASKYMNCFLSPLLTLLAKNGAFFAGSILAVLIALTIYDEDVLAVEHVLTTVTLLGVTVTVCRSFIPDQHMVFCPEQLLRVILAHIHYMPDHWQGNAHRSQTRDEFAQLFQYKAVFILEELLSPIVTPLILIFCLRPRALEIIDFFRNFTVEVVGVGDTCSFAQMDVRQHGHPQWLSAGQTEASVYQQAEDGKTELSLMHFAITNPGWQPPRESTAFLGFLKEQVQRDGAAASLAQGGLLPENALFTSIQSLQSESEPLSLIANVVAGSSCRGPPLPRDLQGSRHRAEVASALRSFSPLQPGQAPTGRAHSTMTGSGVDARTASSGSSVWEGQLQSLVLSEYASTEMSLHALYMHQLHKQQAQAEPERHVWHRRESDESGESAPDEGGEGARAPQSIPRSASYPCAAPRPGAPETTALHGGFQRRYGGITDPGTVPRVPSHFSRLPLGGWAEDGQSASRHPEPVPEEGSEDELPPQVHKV

[2] = target: T1, ATG9A (human) (human); test: co-IP with anti-Flag beads; WT, BECN2 KO and ULK1 KO HEK293T cells co-transfected with HA-ATG9A and Flag-NLRP3 (FIG. 30E)

binding [1]: binds
binding [2]: binds
Substance: NLRP3 (human, full length) (from UniProt Q96P20 1-1036)
